Test results reported in the supplement of paper PMC10849652.
The list shows a part of the results.

The chains behind the UniProt entries cited, without tags or fusion partners. Where a name states a change or a piece, a line headed by the entry shows the natural chain unless it says otherwise.
UniProt P13224: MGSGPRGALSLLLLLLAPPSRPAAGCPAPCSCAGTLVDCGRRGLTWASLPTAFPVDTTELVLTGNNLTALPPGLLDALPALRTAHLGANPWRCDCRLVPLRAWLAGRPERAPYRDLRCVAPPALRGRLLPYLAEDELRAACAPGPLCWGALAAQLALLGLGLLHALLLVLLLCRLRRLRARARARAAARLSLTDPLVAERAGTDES
UniProt Q9P2T1: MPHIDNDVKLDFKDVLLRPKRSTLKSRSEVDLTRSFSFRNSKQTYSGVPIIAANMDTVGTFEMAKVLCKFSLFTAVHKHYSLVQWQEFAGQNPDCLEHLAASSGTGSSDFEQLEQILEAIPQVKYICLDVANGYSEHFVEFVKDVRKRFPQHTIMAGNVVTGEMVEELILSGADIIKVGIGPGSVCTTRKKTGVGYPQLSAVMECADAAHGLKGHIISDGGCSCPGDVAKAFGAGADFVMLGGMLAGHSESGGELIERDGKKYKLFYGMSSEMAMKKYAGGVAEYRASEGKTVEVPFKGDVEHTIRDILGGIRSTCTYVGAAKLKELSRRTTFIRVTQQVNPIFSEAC
UniProt P17174: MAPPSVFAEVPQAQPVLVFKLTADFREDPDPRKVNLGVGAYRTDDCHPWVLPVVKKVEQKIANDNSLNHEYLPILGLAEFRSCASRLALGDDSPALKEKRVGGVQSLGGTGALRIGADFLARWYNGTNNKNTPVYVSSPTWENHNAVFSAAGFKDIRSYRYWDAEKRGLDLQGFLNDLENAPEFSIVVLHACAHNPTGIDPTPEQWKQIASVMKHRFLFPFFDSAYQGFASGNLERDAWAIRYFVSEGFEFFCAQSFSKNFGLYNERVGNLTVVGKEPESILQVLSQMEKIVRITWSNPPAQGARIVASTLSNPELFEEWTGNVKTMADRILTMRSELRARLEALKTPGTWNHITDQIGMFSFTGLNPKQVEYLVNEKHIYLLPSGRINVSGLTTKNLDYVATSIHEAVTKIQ
UniProt P04899, whole entry, looked up: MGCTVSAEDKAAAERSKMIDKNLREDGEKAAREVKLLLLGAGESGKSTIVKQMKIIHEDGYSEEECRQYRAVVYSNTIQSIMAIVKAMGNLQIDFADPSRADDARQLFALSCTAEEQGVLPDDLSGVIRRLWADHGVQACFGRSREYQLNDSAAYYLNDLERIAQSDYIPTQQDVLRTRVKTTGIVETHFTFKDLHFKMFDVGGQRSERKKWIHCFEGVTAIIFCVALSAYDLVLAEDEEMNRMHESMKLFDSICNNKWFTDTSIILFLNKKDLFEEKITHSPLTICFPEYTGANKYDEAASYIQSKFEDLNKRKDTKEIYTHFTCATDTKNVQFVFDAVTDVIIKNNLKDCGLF
UniProt O60234, whole entry, looked up: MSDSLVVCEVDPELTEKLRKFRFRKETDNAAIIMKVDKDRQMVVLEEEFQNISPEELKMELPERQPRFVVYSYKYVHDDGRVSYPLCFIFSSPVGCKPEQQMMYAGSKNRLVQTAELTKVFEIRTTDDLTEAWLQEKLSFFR
UniProt Q9NWU2, whole entry, looked up: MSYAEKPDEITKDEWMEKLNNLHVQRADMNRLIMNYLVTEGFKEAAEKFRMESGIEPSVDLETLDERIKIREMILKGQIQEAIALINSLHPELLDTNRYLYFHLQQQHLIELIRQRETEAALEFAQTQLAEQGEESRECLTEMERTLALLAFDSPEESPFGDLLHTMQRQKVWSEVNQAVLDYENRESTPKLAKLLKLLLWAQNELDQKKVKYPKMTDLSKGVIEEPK
UniProt Q4V328: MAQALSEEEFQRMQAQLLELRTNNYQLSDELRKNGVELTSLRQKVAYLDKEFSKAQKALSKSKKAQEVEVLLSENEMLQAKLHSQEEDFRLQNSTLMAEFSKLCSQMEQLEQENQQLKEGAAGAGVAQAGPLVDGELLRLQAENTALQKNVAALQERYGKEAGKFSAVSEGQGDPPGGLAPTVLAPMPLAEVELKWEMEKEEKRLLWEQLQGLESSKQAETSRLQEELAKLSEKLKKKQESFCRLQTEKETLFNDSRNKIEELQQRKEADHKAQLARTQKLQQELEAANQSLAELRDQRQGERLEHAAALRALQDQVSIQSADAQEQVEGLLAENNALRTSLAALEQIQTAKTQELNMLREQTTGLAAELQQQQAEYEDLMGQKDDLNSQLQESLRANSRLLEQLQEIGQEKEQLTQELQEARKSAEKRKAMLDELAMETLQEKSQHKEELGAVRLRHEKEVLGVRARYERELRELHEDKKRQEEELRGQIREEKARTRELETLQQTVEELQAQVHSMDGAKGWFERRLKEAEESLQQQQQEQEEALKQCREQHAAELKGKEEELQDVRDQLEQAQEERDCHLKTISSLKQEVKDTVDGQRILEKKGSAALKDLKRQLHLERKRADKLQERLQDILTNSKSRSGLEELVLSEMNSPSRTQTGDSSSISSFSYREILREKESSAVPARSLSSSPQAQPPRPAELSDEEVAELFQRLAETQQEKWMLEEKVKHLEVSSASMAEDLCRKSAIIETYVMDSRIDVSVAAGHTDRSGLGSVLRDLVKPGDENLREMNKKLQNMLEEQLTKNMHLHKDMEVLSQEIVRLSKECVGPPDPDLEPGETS
UniProt Q7Z5G4, whole entry, looked up: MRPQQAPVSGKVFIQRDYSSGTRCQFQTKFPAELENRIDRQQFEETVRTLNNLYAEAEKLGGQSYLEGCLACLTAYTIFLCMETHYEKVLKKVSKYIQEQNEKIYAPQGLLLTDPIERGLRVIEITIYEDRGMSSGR
UniProt P49915: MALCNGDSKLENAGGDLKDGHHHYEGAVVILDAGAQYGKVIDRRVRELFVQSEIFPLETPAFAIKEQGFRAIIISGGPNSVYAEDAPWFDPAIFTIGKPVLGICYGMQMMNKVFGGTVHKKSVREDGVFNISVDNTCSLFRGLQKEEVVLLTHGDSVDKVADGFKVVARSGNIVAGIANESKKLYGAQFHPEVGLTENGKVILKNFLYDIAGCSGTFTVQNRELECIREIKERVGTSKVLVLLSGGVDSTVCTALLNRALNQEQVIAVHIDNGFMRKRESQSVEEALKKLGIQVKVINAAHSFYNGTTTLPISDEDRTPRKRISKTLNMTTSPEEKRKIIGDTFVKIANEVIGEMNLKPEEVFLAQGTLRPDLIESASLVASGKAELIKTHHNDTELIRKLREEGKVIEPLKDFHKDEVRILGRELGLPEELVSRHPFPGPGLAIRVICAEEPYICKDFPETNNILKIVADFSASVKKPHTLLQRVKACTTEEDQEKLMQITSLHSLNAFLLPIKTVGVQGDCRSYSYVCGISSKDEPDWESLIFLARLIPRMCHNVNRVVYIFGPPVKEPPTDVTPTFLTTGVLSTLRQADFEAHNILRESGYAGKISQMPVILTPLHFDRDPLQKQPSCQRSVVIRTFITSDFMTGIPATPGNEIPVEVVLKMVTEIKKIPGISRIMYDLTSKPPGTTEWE
UniProt Q92896: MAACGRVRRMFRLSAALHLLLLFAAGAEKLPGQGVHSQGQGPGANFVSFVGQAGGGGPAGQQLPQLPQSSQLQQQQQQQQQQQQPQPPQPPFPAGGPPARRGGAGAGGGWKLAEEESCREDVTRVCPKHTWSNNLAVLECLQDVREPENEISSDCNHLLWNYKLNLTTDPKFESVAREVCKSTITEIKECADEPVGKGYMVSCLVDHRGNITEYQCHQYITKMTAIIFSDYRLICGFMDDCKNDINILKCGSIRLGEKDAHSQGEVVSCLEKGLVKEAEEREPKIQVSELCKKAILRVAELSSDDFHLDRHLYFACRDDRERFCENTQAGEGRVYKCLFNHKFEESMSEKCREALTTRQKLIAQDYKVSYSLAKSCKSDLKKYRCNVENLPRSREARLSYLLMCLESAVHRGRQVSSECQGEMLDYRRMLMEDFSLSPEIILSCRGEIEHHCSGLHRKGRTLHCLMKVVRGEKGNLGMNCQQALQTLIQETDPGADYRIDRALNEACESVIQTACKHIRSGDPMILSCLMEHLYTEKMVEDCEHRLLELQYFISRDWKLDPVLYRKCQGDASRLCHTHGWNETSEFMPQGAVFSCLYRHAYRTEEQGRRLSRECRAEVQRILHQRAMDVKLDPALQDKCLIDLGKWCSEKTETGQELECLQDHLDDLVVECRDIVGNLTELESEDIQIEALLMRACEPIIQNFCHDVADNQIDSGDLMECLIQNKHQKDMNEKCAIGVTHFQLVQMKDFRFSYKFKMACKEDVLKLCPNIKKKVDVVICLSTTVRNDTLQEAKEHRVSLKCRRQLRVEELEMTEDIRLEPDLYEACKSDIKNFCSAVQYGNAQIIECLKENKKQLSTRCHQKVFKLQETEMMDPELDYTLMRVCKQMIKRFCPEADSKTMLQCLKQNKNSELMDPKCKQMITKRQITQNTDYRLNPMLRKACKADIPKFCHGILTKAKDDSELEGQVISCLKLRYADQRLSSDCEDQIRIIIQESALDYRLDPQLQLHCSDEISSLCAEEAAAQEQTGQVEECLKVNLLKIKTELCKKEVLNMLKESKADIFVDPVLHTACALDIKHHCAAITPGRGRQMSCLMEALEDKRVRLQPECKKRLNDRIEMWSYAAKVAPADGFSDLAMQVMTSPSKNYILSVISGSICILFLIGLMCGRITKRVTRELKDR
UniProt P62873, whole entry, looked up: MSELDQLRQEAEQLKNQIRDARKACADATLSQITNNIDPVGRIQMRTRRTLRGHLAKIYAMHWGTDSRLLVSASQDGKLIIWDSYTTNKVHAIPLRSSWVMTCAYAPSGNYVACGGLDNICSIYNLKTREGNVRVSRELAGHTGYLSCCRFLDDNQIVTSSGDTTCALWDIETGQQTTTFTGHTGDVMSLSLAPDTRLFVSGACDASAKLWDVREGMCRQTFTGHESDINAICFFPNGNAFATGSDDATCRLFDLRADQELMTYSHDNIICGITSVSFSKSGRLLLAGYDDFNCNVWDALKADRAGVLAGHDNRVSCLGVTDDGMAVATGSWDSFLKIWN
UniProt O14908: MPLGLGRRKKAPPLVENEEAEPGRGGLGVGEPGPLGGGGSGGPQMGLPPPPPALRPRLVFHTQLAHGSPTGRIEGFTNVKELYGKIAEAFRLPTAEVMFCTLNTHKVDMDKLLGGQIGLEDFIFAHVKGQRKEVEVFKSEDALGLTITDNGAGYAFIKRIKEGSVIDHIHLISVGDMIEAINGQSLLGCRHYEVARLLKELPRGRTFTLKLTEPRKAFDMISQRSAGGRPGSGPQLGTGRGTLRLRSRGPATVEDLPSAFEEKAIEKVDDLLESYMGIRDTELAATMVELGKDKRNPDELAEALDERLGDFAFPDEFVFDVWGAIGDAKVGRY
UniProt Q04760: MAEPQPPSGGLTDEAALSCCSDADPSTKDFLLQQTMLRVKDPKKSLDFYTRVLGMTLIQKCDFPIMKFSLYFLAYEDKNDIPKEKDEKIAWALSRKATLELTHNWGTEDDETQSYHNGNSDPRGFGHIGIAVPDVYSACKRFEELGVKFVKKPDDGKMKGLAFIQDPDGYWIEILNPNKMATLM
UniProt Q13098: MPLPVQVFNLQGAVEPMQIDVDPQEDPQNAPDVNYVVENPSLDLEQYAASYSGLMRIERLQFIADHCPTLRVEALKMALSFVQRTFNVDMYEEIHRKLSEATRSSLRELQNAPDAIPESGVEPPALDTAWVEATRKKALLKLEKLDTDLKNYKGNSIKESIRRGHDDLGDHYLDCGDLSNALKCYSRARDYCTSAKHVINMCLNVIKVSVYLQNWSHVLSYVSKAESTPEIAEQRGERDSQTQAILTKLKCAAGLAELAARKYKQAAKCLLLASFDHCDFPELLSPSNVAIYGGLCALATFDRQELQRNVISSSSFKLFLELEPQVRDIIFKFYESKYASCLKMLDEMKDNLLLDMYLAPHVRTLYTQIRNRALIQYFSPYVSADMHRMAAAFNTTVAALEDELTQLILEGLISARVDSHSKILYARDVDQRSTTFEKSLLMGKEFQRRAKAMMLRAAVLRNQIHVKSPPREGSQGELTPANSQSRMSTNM
UniProt Q9BYB4: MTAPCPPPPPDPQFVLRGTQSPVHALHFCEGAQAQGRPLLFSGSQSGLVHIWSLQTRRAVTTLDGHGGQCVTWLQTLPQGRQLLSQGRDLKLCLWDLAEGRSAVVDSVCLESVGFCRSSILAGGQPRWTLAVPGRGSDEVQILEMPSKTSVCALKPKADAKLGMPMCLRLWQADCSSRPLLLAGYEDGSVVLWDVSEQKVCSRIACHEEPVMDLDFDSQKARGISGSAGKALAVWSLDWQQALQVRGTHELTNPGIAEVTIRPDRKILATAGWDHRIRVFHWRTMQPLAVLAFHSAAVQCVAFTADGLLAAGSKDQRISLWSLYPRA

Tests used:
Experiment in all cases: log2 fold change, soluble protein after heating vs DMSO (PISA); higher = thermal stabilisation; K562 cells, 10 uM, 30 min; active = over 0.2 and 3.5 SD of the protein, either way, in both replicates (recomputed)
[1] = compound: CN1CCN(CCOc2cc(OC3CCOCC3)c3c(Nc4c(Cl)ccc5c4OCO5)ncnc3c2)CC1 [saracatinib]
Outline: (§1)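 K562 cells at 2×10^6 cells/mL were treated for 30 min with 10 μM compound, and aliquots were heated for 3 min over 48°C-58°C before pooling. Extraction used PBS with 0.5% NP-40 at 4°C, and soluble protein was the supernatant after 21,000xg for 90 min, measured by TMTpro 16plex LC-MS/MS with channel sums equalised. Thermal stability values, relative to control samples and from duplicates, are log2 fold changes.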

[2] = compound: CN1CCN(c2nc(C3=C(c4c[nH]c5ccccc45)C(=O)NC3=O)c3ccccc3n2)CC1 [sotrastaurin]
Outline: as §1

[3] = compound: CN1CC[C@H](c2c(O)cc(O)c3c(=O)cc(-c4ccccc4Cl)oc23)[C@H](O)C1 [alvocidib]
Outline: as §1

[4] = compound: CN1CCc2c(c3ccccc3n2Cc2ccc(C(=O)NO)cc2)C1 [Tubastatin A]
Outline: as §1

[5] = compound: CNC(=O)C1=CC=CC=C1NC2=NC(=NC=C2Cl)NC3=C(C=C(C=C3)N4CCOCC4)OC
Outline: as §1

[6] = compound: CNC(=O)c1ccc(Nc2ncc(C(F)(F)F)c(NCc3nccnc3N(C)S(C)(=O)=O)n2)cc1 [defactinib]
Outline: as §1

[7] = compound: CNCc1ccc(-c2[nH]c3cc(F)cc4c3c2CCNC4=O)cc1 [rucaparib]
Outline: as §1

[8] = compound: CNc1nc(-c2ccc3c(N)n[nH]c3c2)cc(N2C[C@@H](C(=O)NC3CCCCC3)CC[C@H]2C)n1
Outline: as §1

[9] = compound: COC(=O)N[C@@H](C)CNc1nccc(-c2cn(C(C)C)nc2-c2cc(Cl)cc(NS(C)(=O)=O)c2F)n1 [encorafenib]
Outline: as §1

[10] = compound: COC(=O)[C@H](CCSC)NC(=O)C1=C(C=C(C=C1)NC[C@H](CS)N)C2=CC=CC=C2
Outline: as §1

[11] = compound: COC1=CC=C(C=C1)CN2C=CC3=C2C=C(C=C3)C(=O)NO
Outline: as §1

[12] = compound: CON(C)C(=O)N1N=C(c2cc(F)ccc2F)S[C@@]1(CCCN)c1ccccc1 [filanesib]
Outline: as §1

[13] = compound: CO[C@H]1C[C@@H]2CC[C@@H](C)[C@@](O)(O2)C(=O)C(=O)N2CCCC[C@H]2C(=O)O[C@H]([C@H](C)C[C@@H]2CC[C@H](n3cnnn3)[C@H](OC)C2)CC(=O)[C@H](C)/C=C(\C)[C@@H](O)[C@@H](OC)C(=O)[C@H](C)C[C@H](C)/C=C/C=C/C=C/1C [zotarolimus]
Outline: as §1

[14] = compound: COc1cc(C(=O)O)ccc1NC(=O)[C@@H]1N[C@@H](CC(C)(C)C)[C@](C#N)(c2ccc(Cl)cc2F)[C@H]1c1cccc(Cl)c1F [idasanutlin]
Outline: as §1

[15] = compound: COc1cc(Nc2ncc3c(n2)-c2ccc(Cl)cc2C(c2c(F)cccc2OC)=NC3)ccc1C(=O)O [alisertib]
Outline: as §1

[16] = compound: COc1cc2nc(-c3cc(F)ccc3O)nc(N[C@@H]3CNC[C@H]3C(C)(C)O)c2cc1OC
Outline: as §1

[17] = compound: COc1cc2ncnc(Nc3ccc(F)c(Cl)c3)c2cc1OCCCN1CCOCC1 [gefitinib]
Outline: as §1

[18] = compound: COc1cccc2cc(-c3nc([C@H]4CC[C@H](C(=O)O)CC4)n4ncnc(N)c34)[nH]c12
Outline: as §1

[19] = compound: CS(=O)(=O)CCNCc1ccc(-c2ccc3ncnc(Nc4ccc(OCc5cccc(F)c5)c(Cl)c4)c3c2)o1 [lapatinib]
Outline: as §1

[20] = compound: CS(=O)(=O)N1CCN(Cc2cc3nc(-c4cccc5[nH]ncc45)nc(N4CCOCC4)c3s2)CC1 [pictilisib]
Outline: as §1

Measured: log2 fold change

GP1BB isoform 2 (UniProt P13224)
inactive: [1] 0.002 | [2] 0 | [3] 0.056 | [4] 0.024 | [5] 0.019 | [6] -0.025 | [7] -0.016 | [8] -0.005 | [9] -0.024 | [10] -0.001 | [11] -0.047 | [12] -0.051 | [13] -0.058 | [14] 0.042 | [15] 0.001 | [16] -0.016 | [17] 0.019 | [18] -0.024 | [19] 0.047 | [20] 0.05

GMPR2 isoform 2 (UniProt Q9P2T1)
inactive: [1] 0.057 | [2] 0.039 | [3] -0.035 | [4] -0.053 | [5] -0.045 | [6] -0.026 | [7] -0.028 | [8] -0.05 | [9] -0.031 | [10] -0.019 | [11] 0.005 | [12] -0.007 | [13] -0.005 | [14] -0.001 | [15] -0.016 | [16] 0.004 | [17] 0.006 | [18] 0.058 | [19] -0.013 | [20] -0.007

GOT1 (UniProt P17174)
inactive: [1] 0.033 | [2] 0.038 | [3] -0.01 | [4] 0.003 | [5] -0.036 | [6] -0.006 | [7] -0.047 | [8] -0.01 | [9] -0.009 | [10] 0.01 | [11] -0.008 | [12] -0.026 | [13] -0.004 | [14] 0.014 | [15] -0.058 | [16] 0.016 | [17] -0.014 | [18] 0.017 | [19] -0.034 | [20] -0.003

GNAI2 isoform 4 (UniProt P04899)
inactive: [1] -0.046 | [2] 0.026 | [3] 0.025 | [4] -0.034 | [5] 0.052 | [6] -0.006 | [7] 0.079 | [8] 0.049 | [9] 0.008 | [10] -0.098 | [11] -0.029 | [12] -0.05 | [13] -0.015 | [14] -0.049 | [15] -0.086 | [16] 0.154 | [17] 0.078 | [18] -0.023 | [19] -0.001 | [20] 0.073

GMFG (UniProt O60234)
inactive: [1] 0.043 | [2] -0.017 | [3] -0.043 | [4] 0.016 | [5] 0.024 | [6] -0.042 | [7] 0.054 | [8] -0.053 | [9] 0.026 | [10] -0.03 | [11] -0.137 | [12] 0.022 | [13] 0.062 | [14] -0.057 | [15] -0.089 | [16] -0.02 | [17] 0.028 | [18] -0.001 | [19] -0.06 | [20] 0.03

GID8 (UniProt Q9NWU2)
inactive: [1] 0.02 | [2] -0.006 | [3] -0.061 | [4] -0.007 | [5] -0.007 | [6] -0.087 | [7] 0.035 | [8] 0.045 | [9] 0.025 | [10] -0.015 | [11] -0.07 | [12] 0.071 | [13] 0.033 | [14] 0.022 | [15] -0.018 | [16] -0.04 | [17] -0.009 | [18] -0.024 | [19] -0.004 | [20] -0.051

GRIPAP1 (UniProt Q4V328)
inactive: [1] 0.125 | [2] -0.143 | [3] -0.015 | [4] -0.027 | [5] 0.114 | [6] -0.013 | [7] 0.008 | [8] -0.018 | [9] 0.057 | [10] 0.029 | [11] 0.063 | [12] 0.016 | [13] 0.027 | [14] 0.035 | [15] -0.053 | [16] -0.066 | [17] 0.065 | [18] -0.047 | [19] 0.086 | [20] 0.019

GOLGA7 (UniProt Q7Z5G4)
inactive: [1] -0.046 | [2] -0.006 | [3] -0.067 | [4] 0.055 | [5] 0.029 | [6] -0.013 | [7] -0.026 | [8] 0.011 | [9] 0.07 | [10] -0.046 | [11] -0.056 | [12] 0.006 | [13] -0.066 | [14] -0.026 | [15] 0.013 | [16] -0.069 | [17] -0.003 | [18] 0.026 | [19] -0.052 | [20] 0.04

GMPS (UniProt P49915)
inactive: [1] -0.013 | [2] 0.015 | [3] -0.079 | [4] -0.009 | [5] -0.004 | [6] -0.006 | [7] -0.028 | [8] 0.026 | [9] 0.019 | [10] 0.002 | [11] 0.024 | [12] -0.136 | [13] 0.027 | [14] -0.095 | [15] -0.055 | [16] -0.032 | [17] 0.017 | [18] 0.021 | [19] 0.013 | [20] 0.003

GLG1 isoform 2 (UniProt Q92896)
inactive: [1] 0.002 | [2] -0.005 | [3] 0.014 | [4] -0.039 | [5] -0.023 | [6] 0.001 | [7] -0.053 | [8] -0.053 | [9] -0.015 | [10] 0.028 | [11] 0.031 | [12] -0.048 | [13] -0.049 | [14] -0.01 | [15] -0.018 | [16] -0.022 | [17] -0.004 | [18] 0.029 | [19] 0.029 | [20] 0.041

GPI (UniProt P06744)
inactive: [1] 0.028 | [2] 0.011 | [3] -0.075 | [4] -0.014 | [5] -0.034 | [6] -0.016 | [7] -0.064 | [8] 0.002 | [9] -0.002 | [10] -0.005 | [11] -0.059 | [12] -0.059 | [13] 0.02 | [14] -0.017 | [15] -0.031 | [16] 0 | [17] 0.011 | [18] 0.041 | [19] -0.047 | [20] -0.052

2 entries picked at random from those above:
GOT1 (UniProt P17174)
inactive: [1] 0.033 | [2] 0.038 | [3] -0.01 | [4] 0.003 | [5] -0.036 | [6] -0.006 | [7] -0.047 | [8] -0.01 | [9] -0.009 | [10] 0.01 | [11] -0.008 | [12] -0.026 | [13] -0.004 | [14] 0.014 | [15] -0.058 | [16] 0.016 | [17] -0.014 | [18] 0.017 | [19] -0.034 | [20] -0.003

GMPR2 isoform 2 (UniProt Q9P2T1)
inactive: [1] 0.057 | [2] 0.039 | [3] -0.035 | [4] -0.053 | [5] -0.045 | [6] -0.026 | [7] -0.028 | [8] -0.05 | [9] -0.031 | [10] -0.019 | [11] 0.005 | [12] -0.007 | [13] -0.005 | [14] -0.001 | [15] -0.016 | [16] 0.004 | [17] 0.006 | [18] 0.058 | [19] -0.013 | [20] -0.007

Additional entries follow.

GNB1 (UniProt P62873)
inactive: [1] -0.005 | [2] 0.121 | [3] -0.19 | [4] 0.102 | [5] 0.032 | [6] -0.028 | [7] 0 | [8] 0.085 | [9] -0.055 | [10] -0.04 | [11] 0.019 | [12] -0.1 | [13] 0.043 | [14] 0.054 | [15] -0.098 | [16] 0.03 | [17] 0.082 | [18] -0.01 | [19] 0 | [20] 0.083

GIPC1 (UniProt O14908)
inactive: [1] -0.033 | [2] -0.009 | [3] -0.058 | [4] -0.035 | [5] 0.018 | [6] -0.114 | [7] 0.056 | [8] -0.013 | [9] -0.044 | [10] -0.122 | [11] -0.01 | [12] 0.067 | [13] 0.019 | [14] -0.076 | [15] -0.009 | [16] 0.048 | [17] 0.07 | [18] -0.007 | [19] -0.036 | [20] 0.078

GLO1 (UniProt Q04760)
inactive: [1] 0.032 | [2] -0.003 | [3] 0.028 | [4] -0.017 | [5] -0.034 | [6] 0.005 | [7] -0.092 | [8] -0.03 | [9] -0.01 | [10] 0.011 | [11] 0.068 | [12] -0.053 | [13] -0.022 | [14] -0.027 | [15] -0.1 | [16] 0.024 | [17] 0.028 | [18] 0.011 | [19] 0.007 | [20] -0.003

GPS1 isoform 7 (UniProt Q13098)
inactive: [1] 0.031 | [2] 0.004 | [3] -0.055 | [4] -0.045 | [5] 0.007 | [6] -0.008 | [7] -0.008 | [8] -0.032 | [9] -0.002 | [10] 0.052 | [11] 0.014 | [12] -0.024 | [13] 0.02 | [14] -0.028 | [15] -0.042 | [16] -0.031 | [17] 0.008 | [18] 0.003 | [19] 0.016 | [20] -0.01

GNB1L (UniProt Q9BYB4)
inactive: [1] 0.01 | [2] 0.05 | [3] -0.025 | [4] -0.072 | [5] -0.044 | [6] -0.013 | [7] -0.073 | [8] -0.009 | [9] -0.037 | [10] 0.033 | [11] 0.007 | [12] 0.003 | [13] -0.037 | [14] -0.026 | [15] -0.044 | [16] 0.047 | [17] 0.011 | [18] 0.041 | [19] -0.052 | [20] 0.024
